Earlier results as cited in patent US11225505B2, “Antimicrobial polymyxin derivative compounds” (MONASH UNIVERSITY, priority 2015, dated 2022).
Some entries share one result that the patent states for a list of compounds.

Tested on: patients
Conditions: parenteral administration; colistin as prodrug colistin methanesulphonate; cited from earlier work

Substance	patients with nephrotoxicity
Polymyxin B [reference compound]	up to 60%
Colistin [reference compound]	up to 60%
